No constants are given. Whether binding was seen depends on the method and setting. Some results given as binding are weak or reduced against the parent protein; the word gives no strength.

For assay [1], the target named is LptAm (monomeric E. coli LptA mutant, LptA Δ160-185) (E. coli) (UniProt P0ADV1). Briefly: SEC-MALS; 40 µl injected on Superdex S200 (10/300GL) in buffer B (50 mM sodium phosphate, 150 mM NaCl, pH 8) at 25 °C; proteins alone and LptC-LptAm mixtures (also with a two-times molar excess of LptAm); protein conjugate two-component analysis for the complex; both purified.

Assay [2] has the same target. Kind of assay: SAXS; beamline BM29 (ESRF), 20 °C, NMR buffer with 0.5% w/v sucrose; LptAm 1.6 and 2.4 mg/ml, LptC 1, 2 and 3 mg/ml, LptAm:LptC 1:1 molar ratio at 3.6 and 5.4 mg/ml; extrapolated to zero dilution; both purified.
In assay [3] the target is T1, LptC construct lacking the 23 residues long N-terminal transmembrane domain (E. coli), P0ADV9.
T1 chain: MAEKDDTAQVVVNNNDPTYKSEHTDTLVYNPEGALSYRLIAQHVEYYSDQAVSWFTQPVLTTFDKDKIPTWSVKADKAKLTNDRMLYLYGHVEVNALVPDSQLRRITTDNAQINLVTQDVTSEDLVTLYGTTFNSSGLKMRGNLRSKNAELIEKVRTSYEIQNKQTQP
Kind of assay: NMR spectroscopy; LptC alone, 45 °C, buffer B with 5% D2O; dimerisation told only in the discussion; both purified. Conditions: remark: other sources report otherwise.

B1: LptAm (monomeric E. coli LptA mutant, LptA Δ160-185) (domain or fragment, UniProt P0ADV1 28-159, looked up)
chain: VTGDTDQPIHIESDQQSLDMQGNVVTFTGNVIVTQGTIKINADKVVVTRPGGEQGKEVIDGYGKPATFYQMQDNGKPVEGHASQMHYELAKDFVVLTGNAYLQQVDSNIKGDKITYLVKEQKMQAFSDKGKR
notes: LptA, E. coli, residues 28-159; lacks the last C-terminal β-strand (Δ160-185); For NMR the protein was isotope-labelled (2H, 13C, 15N) or unlabelled; the purified protein is 28-159; also called monomeric LptA; C-terminally truncated LptA; source: E. coli BL21(DE3), pET21b, purified (HiTrap, S75 SEC)
In the case of B1, the binding result in assay [1] is “no binding”; in assay [2], “no binding (tested: 1.6 and 2.4 mg/ml)”.

B2: LptC construct lacking the 23 residues long N-terminal transmembrane domain (domain or fragment, E. coli, UniProt P0ADV9 24-191, looked up)
chain: MAEKDDTAQVVVNNNDPTYKSEHTDTLVYNPEGALSYRLIAQHVEYYSDQAVSWFTQPVLTTFDKDKIPTWSVKADKAKLTNDRMLYLYGHVEVNALVPDSQLRRITTDNAQINLVTQDVTSEDLVTLYGTTFNSSGLKMRGNLRSKNAELIEKVRTSYEIQNKQTQP
notes: LptC, E. coli, lacking the first 23 residues (transmembrane domain); For NMR the protein was isotope-labelled (2H, 13C, 15N, or AILV methyl-labelled) or unlabelled; also called LptC dimer; source: E. coli M15 [prep4], pQESH plasmid, purified (HiTrap, S75 SEC)
B2: in assay [3], the binding result is given as “binds”.
